Measured values: US20210220419A1, “Herbal Nutraceutical Formulation to Reduce Oxidative Stress, Viral and Microbial Infections, and Inflammation” (priority 2017, published 2021)

Tested on: Low Density Lipoproteins, Human Plasma
Assay: LDL oxidation in a cell-free system, Cu2+ induced (Experiment 10)
Assay type: biochemical
Details: reference compounds, FIG. 6B

CC(C)c1c(C(=O)Nc2ccccc2)c(-c2ccccc2)c(-c2ccc(F)cc2)n1CC[C@@H](O)C[C@@H](O)CC(=O)O [Atorvastatin]
Inhibition of LDL oxidation, in words: significant inhibition
